Results on three molecules are retold here after article PMC5312596, “A novel Pfs38 protein complex on the surface of Plasmodium falciparum blood-stage merozoites” (Malaria Journal, 2017).

No constants are given. Whether binding was seen depends on the method and setting. For some of these results: Binding calls can cover weak binding; strength is not graded here.

Test [1] addresses T1, recombinant Pfs38 (6-Cys domain, aa 153–328) (Plasmodium falciparum) (UniProt Q8I423).
T1 sequence: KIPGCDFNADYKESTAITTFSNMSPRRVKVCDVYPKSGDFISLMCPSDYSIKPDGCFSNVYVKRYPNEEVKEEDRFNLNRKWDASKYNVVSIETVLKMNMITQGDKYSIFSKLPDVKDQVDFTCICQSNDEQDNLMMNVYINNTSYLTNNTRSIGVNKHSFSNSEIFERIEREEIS
Nature of the test: ELISA; Pfs38 coated at 2 µg/mL overnight at 4 °C; recombinant partners added at 2, 5, 10 and 20 µg/ml for 2 h; detected with polyclonal antibody against the added protein; both purified.

In test [2] the target is recombinant Pfs12 (aa 26–323) (Plasmodium falciparum). Put plainly: far-Western, overlay or dot blot; 1-5 µg recombinant protein separated by SDS-PAGE, blotted, denatured and renatured; membrane incubated with 2 µg/mL purified GLURP R2, Pfs38 or SERA-5 in 100 mM NaCl, 20 mM Tris pH 7.6, 0.5 mM EDTA, 10% glycerol, 1 mM DTT, 2 h at RT; detected with antisera to the soluble protein; both purified.

For test [3], the target named is PfMLH (Plasmodium falciparum). The test is described as above.

In the case of PfMLH (Plasmodium falciparum), the binding result in test [1] is recorded as “no binding”.

With “recombinant Pfs12 (aa 26–323) (Plasmodium falciparum) (domain or fragment)”, the binding entry in test [1] was “binds”.

B1: recombinant Pfs38 (6-Cys domain, aa 153–328) (domain or fragment)
chain: KIPGCDFNADYKESTAITTFSNMSPRRVKVCDVYPKSGDFISLMCPSDYSIKPDGCFSNVYVKRYPNEEVKEEDRFNLNRKWDASKYNVVSIETVLKMNMITQGDKYSIFSKLPDVKDQVDFTCICQSNDEQDNLMMNVYINNTSYLTNNTRSIGVNKHSFSNSEIFERIEREEIS
notes: Pfs38, Plasmodium falciparum 6-Cys protein; 6-Cys domain aa 153-328, amplified from a codon-optimised synthetic gene (aa 22-328) and cloned in pET28b between NcoI and XhoI; Cloning in pET28b between NcoI and XhoI would give a C-terminal His6 (surmised); The forward primer adds a few residues (Met-Gly-Ser) before the insert (surmised from the primer); also called rPfs38
Regarding B1, the binding result is “binds” in test [2] and “no binding (tested: 2 µg/mL)” in test [3].
